This note sets out measurements from the supplement of paper PMC11006884.

Chains of the proteins cited; added tags and fusions are not shown. Lines headed by an entry give the natural chain unless they say otherwise; changes in a name come on top.
UniProt Q8TEX9: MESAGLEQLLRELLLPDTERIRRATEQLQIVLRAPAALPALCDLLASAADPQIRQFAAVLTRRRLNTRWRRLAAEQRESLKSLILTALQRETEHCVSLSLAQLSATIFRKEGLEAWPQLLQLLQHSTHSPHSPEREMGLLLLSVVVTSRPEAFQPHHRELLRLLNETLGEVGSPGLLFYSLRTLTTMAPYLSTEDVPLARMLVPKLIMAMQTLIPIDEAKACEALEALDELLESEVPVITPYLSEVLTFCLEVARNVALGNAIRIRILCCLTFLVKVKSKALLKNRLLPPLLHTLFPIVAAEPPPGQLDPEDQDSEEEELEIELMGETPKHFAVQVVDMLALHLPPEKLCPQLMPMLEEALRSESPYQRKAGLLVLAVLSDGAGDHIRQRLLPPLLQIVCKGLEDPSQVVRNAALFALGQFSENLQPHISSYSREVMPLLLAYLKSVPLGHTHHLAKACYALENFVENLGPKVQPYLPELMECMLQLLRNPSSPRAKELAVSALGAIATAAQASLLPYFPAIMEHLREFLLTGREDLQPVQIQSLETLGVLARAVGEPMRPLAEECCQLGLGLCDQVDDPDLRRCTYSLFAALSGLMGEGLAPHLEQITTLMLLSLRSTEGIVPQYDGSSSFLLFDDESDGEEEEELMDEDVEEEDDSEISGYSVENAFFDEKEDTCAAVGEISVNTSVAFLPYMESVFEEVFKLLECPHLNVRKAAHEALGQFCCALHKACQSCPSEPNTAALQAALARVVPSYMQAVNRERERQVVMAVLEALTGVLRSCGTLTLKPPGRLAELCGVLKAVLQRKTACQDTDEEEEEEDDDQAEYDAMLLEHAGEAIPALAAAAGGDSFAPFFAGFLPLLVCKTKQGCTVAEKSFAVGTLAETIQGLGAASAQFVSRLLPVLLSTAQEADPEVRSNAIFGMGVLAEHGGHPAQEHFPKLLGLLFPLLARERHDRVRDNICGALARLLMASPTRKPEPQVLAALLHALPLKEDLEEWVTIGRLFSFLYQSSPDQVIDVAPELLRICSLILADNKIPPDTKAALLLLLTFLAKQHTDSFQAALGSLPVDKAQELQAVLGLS
UniProt Q8N8S7: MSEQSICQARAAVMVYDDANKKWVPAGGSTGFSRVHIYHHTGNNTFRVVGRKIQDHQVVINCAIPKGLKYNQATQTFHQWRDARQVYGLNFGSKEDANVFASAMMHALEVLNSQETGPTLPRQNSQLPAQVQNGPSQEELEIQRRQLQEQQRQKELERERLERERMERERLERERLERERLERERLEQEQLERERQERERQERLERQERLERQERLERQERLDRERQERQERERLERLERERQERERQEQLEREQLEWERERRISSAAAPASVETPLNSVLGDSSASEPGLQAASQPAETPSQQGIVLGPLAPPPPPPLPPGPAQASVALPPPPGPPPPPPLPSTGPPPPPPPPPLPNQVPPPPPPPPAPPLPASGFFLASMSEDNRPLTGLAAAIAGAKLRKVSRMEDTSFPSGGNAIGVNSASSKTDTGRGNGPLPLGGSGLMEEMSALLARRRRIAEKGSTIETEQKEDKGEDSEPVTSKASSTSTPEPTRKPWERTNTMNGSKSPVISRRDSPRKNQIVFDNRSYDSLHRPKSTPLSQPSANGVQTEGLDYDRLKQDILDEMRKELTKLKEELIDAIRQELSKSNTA
UniProt Q8N300: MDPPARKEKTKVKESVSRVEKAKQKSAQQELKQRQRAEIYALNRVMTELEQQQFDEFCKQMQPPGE
UniProt Q8N726, whole entry: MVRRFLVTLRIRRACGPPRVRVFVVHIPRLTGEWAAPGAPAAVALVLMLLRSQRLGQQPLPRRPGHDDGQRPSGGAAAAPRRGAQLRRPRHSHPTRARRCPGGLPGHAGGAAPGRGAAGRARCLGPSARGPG
UniProt Q8TB72: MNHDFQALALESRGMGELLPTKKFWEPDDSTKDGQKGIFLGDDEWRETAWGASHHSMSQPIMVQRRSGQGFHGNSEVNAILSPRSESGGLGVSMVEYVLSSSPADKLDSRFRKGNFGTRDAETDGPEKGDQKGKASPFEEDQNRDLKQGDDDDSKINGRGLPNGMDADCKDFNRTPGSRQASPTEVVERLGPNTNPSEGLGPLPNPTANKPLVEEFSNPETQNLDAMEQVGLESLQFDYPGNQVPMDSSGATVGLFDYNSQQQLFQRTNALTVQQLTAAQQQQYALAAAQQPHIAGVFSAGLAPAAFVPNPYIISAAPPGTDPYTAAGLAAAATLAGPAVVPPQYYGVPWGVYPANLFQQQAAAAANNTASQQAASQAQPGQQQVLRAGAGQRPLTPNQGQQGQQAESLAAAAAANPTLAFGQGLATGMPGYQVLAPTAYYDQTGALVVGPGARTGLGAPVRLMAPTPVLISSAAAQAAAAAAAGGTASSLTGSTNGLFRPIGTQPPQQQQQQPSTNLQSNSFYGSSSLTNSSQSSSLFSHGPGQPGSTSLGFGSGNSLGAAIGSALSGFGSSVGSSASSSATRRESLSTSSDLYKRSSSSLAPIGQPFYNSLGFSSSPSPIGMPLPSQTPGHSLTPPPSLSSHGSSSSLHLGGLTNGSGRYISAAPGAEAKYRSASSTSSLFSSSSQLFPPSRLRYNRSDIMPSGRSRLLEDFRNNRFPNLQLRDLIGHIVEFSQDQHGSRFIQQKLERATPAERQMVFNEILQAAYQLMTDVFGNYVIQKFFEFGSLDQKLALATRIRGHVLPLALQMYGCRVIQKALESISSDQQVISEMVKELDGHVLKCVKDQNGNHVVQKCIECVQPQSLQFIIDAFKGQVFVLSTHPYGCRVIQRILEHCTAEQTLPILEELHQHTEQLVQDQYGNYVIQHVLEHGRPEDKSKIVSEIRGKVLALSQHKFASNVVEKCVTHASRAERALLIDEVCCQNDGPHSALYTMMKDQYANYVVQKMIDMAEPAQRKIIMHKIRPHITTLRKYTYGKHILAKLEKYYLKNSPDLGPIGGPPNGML
UniProt Q8TEQ6: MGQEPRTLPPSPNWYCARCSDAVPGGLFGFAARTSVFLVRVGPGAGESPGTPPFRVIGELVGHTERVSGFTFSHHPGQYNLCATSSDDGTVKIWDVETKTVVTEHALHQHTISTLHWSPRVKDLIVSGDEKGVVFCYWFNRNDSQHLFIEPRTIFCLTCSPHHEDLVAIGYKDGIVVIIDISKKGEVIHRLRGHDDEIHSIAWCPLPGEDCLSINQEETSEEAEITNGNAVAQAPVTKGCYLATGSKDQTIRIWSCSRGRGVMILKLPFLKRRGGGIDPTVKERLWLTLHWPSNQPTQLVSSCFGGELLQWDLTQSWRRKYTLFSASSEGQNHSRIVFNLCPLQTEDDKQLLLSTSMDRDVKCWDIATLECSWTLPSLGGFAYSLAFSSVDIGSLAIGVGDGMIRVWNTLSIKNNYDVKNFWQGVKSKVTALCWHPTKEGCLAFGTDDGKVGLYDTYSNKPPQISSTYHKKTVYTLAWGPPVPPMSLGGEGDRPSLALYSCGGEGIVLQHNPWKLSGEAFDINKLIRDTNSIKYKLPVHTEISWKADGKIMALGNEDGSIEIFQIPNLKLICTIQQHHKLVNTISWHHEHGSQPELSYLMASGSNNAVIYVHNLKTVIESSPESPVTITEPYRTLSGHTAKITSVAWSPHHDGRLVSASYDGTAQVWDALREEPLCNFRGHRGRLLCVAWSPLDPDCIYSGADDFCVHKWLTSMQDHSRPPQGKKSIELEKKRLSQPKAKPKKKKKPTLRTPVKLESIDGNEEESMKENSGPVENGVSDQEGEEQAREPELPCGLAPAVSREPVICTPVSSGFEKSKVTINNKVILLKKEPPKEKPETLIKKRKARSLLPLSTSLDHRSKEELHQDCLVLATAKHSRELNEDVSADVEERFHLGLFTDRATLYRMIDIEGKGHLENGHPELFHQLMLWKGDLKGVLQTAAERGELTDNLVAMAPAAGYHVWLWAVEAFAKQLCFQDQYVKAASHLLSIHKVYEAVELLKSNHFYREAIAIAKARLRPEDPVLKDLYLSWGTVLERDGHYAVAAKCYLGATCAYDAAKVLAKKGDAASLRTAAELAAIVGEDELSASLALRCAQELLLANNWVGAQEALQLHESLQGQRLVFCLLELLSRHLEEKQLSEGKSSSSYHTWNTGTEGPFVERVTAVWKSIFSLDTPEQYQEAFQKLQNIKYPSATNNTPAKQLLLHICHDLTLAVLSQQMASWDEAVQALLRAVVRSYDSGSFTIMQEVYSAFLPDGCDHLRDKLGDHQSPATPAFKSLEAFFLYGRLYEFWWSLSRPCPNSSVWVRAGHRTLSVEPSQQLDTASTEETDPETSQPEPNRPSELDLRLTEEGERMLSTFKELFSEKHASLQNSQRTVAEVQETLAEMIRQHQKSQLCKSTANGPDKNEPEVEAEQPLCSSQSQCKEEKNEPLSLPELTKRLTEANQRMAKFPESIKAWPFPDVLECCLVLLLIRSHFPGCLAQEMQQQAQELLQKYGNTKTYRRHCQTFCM
UniProt Q8NDX6: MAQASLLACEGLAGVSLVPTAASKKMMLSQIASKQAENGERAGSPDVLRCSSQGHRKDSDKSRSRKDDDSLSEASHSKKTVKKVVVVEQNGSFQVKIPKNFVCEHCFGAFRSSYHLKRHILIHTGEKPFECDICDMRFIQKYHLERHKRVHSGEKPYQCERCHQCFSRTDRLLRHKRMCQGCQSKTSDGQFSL
UniProt Q8NDV7: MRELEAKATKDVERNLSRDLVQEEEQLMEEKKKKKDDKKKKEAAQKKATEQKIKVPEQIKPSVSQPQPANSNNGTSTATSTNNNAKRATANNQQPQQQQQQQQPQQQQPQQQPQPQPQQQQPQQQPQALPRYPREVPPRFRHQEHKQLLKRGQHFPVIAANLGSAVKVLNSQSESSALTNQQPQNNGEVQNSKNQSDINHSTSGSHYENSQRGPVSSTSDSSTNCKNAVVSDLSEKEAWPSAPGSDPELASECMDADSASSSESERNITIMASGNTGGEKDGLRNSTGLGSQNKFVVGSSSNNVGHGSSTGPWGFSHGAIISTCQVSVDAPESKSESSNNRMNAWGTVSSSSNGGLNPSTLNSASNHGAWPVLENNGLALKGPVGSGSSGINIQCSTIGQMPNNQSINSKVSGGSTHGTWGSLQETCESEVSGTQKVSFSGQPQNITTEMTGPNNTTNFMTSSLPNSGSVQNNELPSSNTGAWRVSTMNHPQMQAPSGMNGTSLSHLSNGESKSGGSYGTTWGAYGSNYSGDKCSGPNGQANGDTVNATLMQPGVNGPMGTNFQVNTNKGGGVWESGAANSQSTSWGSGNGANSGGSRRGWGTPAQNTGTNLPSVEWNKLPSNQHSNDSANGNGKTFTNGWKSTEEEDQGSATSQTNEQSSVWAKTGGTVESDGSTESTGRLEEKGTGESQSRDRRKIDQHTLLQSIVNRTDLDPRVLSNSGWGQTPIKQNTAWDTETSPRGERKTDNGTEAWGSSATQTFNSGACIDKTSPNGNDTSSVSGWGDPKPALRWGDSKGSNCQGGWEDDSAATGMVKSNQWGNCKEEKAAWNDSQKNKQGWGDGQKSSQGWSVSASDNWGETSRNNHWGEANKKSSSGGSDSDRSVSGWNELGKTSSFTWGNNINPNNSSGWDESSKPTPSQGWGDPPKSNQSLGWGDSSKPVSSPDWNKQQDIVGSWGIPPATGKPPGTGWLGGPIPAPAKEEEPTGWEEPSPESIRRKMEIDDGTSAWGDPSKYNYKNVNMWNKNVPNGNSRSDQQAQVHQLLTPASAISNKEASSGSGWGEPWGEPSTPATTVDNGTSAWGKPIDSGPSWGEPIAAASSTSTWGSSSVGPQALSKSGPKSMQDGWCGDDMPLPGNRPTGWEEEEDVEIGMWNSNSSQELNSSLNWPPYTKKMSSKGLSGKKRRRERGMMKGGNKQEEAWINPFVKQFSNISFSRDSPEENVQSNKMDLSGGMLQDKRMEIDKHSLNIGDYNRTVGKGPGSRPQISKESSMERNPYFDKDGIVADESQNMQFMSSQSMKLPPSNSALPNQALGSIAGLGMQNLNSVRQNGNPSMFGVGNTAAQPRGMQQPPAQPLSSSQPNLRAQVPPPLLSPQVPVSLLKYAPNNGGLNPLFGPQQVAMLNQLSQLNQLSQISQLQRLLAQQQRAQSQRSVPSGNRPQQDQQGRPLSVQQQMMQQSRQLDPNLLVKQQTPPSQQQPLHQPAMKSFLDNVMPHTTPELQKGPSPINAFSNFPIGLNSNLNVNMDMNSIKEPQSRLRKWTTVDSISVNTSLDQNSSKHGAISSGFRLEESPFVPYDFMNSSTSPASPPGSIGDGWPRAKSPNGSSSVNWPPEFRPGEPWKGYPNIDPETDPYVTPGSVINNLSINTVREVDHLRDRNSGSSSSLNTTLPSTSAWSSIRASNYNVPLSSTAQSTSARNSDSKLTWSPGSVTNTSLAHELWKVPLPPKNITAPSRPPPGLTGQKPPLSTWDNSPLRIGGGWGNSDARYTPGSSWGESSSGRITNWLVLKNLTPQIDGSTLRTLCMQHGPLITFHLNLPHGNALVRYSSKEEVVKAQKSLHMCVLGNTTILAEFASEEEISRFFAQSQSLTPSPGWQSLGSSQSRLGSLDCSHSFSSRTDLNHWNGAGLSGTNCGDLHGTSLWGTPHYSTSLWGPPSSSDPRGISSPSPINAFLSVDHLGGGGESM

This list holds what a sample rich in targets with a hit left over. Single values of this set are uncertain. The entries are a selection whose mix differs from that of the whole data set.

Compound in the assay: COC(=O)/C=C/c1ccccc1 [methyl cinnamate]
Kind of assay: log2 ratio of iodoacetamide-alkyne labeling of the cysteine site, DMSO over compound (competition); higher = stronger covalent engagement of the cysteine by the compound, active = 1 or more. The following applies: 500 µM; treatment time 1 h; system: HEK293T cell lysate. An outline of the steps: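 Electrophile (500 µM) or vehicle was added to HEK293T lysate (2 mg/mL) for 1 h at ambient temperature before iodoacetamide alkyne labelling (1 h) and click coupling to sCIP-TMT reagents. After pooling, overnight trypsin digestion at 37 °C, streptavidin enrichment and acid elution, peptides were measured by Orbitrap Eclipse LC-MS/MS with FAIMS and quantified in FragPipe. Each cysteine's log2 competition ratio compares mean control-channel with mean compound-channel reporter intensity, control over compound. Data came from duplicate channels across three replicates, excluding cysteines quantified in only one replicate.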
Consider NUP133 C1037 (UniProt Q8WUM0), for which the “log2 ratio of iodoacetamide-alkyne labeling” value (shortened to “log2 ratio”) is inactive: 0.0719.
On to SPATA5 C81 (UniProt Q8NB90), for which the “log2 ratio” value was inactive: 0.0532.
Next, CHTF18 C542 (UniProt Q8WVB6): inactive: -0.0263; IPO4 C459 (UniProt Q8TEX9): inactive: 0.109; UniProt Q8TEJ3_C103: inactive: 0.318.
Next, PPHLN1 C446 (UniProt Q8NEY8): inactive: 0.0375.
With UniProt Q8N0X7_C562, the “log2 ratio” value was inactive: 0.135.
Next, SMCR8 C644 (UniProt Q8TEV9): inactive: -0.0721; IPO4 C350 (UniProt Q8TEX9): inactive: 0.0308; DDX54 C73 (UniProt Q8TDD1): inactive: 0.3.
In the case of SYNE2 C5348 (UniProt Q8WXH0), the “log2 ratio” value was inactive: 0.222.
The value for NOC3L C683 (UniProt Q8WTT2) was inactive: 0.00677.
Next, ASCC3 C208 (UniProt Q8N3C0): inactive: 0.277.
Next, ENAH C7 (UniProt Q8N8S7): inactive: 0.166; SVBP C58 (UniProt Q8N300): inactive: -0.00768; NANP C242 (UniProt Q8TBE9): inactive: 0.3.
In the case of UniProt Q8N726_C123, the “log2 ratio” value is inactive: 0.206.
With PUM2 C169 (UniProt Q8TB72), the “log2 ratio” value is inactive: 0.0956.
The value for GEMIN5 C806 (UniProt Q8TEQ6) was inactive: 0.293; that for UniProt Q8NC60_C364 was inactive: 0.0261.
Next, UniProt Q8WZA9_C504: inactive: -0.0433; PPIL4 C245 (UniProt Q8WUA2): inactive: -0.0624.
The value for UniProt Q8TE02_C203 was inactive: -0.67; that for UniProt Q8WZA9_C152 was inactive: 0.232; that for PDCD6IP C40 (UniProt Q8WUM4) was inactive: 0.374.
On to IPO4 C782 (UniProt Q8TEX9), for which the “log2 ratio” value is inactive: 0.175.
With LRRC47 C164 (UniProt Q8N1G4), the “log2 ratio” value was inactive: -0.105.
The value for CTNNBL1 C370 (UniProt Q8WYA6) was inactive: -0.317.
The value for SIRT6 C18 (UniProt Q8N6T7) was inactive: 0.179.
In the case of PHIP C954 (UniProt Q8WWQ0), the “log2 ratio” value is inactive: 0.202.
As to RAB2B C154 (UniProt Q8WUD1), the “log2 ratio” value is inactive: 0.339.
LRRC47 C224 (UniProt Q8N1G4): the “log2 ratio” value is inactive: 0.188.
Turning to ZNF740 C9 (UniProt Q8NDX6), the “log2 ratio” value is inactive: 0.458.
The value for DGCR8 C514 (UniProt Q8WYQ5) was inactive: 0.0968; that for ENGASE C113 (UniProt Q8NFI3) was inactive: -0.0431; that for INTS1 C1701 (UniProt Q8N201) was inactive: 0.0493.
The value for NUP133 C702 (UniProt Q8WUM0) was inactive: -0.235.
As for TNRC6A C800 (UniProt Q8NDV7), the “log2 ratio” value is inactive: 0.336.
